Measurements reported in patent US20110105457A1, “HETEROCYCLIC COMPOUND HAVING INHIBITORY ACTIVITY ON PI3K” (SHIONOGI & CO., LTD., priority 2008, published 2011).
Some entries share one result that the patent states for a list of compounds.

Chains of the proteins cited; added tags and fusions are not shown.
UniProt P08684, whole entry: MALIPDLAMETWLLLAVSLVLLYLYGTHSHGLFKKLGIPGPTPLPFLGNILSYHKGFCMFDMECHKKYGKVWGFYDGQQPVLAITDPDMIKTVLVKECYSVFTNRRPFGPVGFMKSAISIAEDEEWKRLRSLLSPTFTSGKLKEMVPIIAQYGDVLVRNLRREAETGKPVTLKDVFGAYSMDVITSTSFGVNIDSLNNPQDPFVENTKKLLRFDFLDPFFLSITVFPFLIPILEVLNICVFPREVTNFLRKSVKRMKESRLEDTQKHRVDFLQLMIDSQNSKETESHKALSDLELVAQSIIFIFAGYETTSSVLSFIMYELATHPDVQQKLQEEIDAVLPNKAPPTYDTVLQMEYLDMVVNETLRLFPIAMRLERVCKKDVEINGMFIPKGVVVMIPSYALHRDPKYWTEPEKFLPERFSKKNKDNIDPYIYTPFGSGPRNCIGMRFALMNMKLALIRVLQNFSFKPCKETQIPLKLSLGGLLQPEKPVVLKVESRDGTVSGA

What was measured:
[1] = molecular target: CYP3A4 (Homo sapiens, UniProt P08684); assay: CYP3A4 fluorescence MBI test; format: in vitro ADME; set-up: host or cells: E. coli; settings: pre-reaction 0 or 30 minutes, substrate 7-BFC
[2] = test system: AKT phosphorylation (Ser473) in THP-1 cells; assay: AKT phosphorylation inhibitory activity in MCP-1 stimulated THP-1 cells (ELISA); format: cell-based, human; settings: MCP-1 stimulation, compound concentration not given
Procedure: (1) The AKT phosphorylation inhibitory activity of a compound was evaluated according to the following procedure. (2) Human monocyte-like cell line THP-1 was washed with RPMI-1640 media, incubated in the presence of 5% CO2 at 37 degrees Celsius for 3 hours, washed with Hank's balanced salt solution (HBSS), adjusted to a cell concentration of 6.6×10^6/mL, and then used in an experiment. (3) 30 μL of the cell suspension and 60 μL of each compound solution comprising 0.2% DMSO/HBSS are mixed, and then preincubated at 37 degrees Celsius for 5 minutes. 30 μL of HBSS comprising 4 μg/mL of MCP-1 was added thereto, and then incubated for 30 seconds at 37 degrees Celsius. (4) 30 μL of 20 mM Tris-HCl (pH 7.5)/150 mM NaCl/1 mM Na2EDTA/1 mM EGTA/1% Triton/2.5 mM sodium pyrophosphate/1 mM β-glycerophosphate/1 mM Na3VO4/1 μg/ml leupeptin/50 nM APMSF was added thereto to dissolve cells. (5) The amount of AKT phosphorylation in a cell solution was measured by ELISA method. (6) To a micro well plate to which anti-phospho-Akt (Ser473) antibody (clone 193H12, derived from a rabbit) was solid-phased was added 100 μL of a prepared cell solution, incubated for 2 hours at 37 degrees Celsius, and then washed four times with Phosphate Buffered Saline/0.05% Tween-20. (7) An anti-AKT1 antibody (clone 2H10, derived from a mouse) was added thereto, incubated for 1 hour at 37 degrees Celsius, washed similarly, and then reacted with an HRP-labeled anti-mouse IgG antibody. (8) After incubating at 37 degrees Celsius for 30 minutes and then washing similarly, 100 μL of TMB (3,3′,5,5″-tetramethylbenzidine) was added thereto, followed by reacting at room temperature for 30 minutes. (9) 100 μL of 1 mol/L sulfuric acid was added to quench the color reaction, and then the absorbance at 450 nm was measured. (10) A series of diluted cell solutions of a positive control (a sample in the absence of a compound) were used as a calibration curve, the amount of AKT phosphorylation in a sample in the absence of MCP-1 was defined as 0% activity to calculate an inhibition ratio.

[3] = Metabolic stability test, pooled human liver microsome; format: in vitro ADME; settings: human liver microsome 0.5 mg protein/mL, NADPH, 37 degrees Celsius, 30 minutes
Procedure: After a subject compound was reacted for a certain time using a pooled human liver microsome commercially available, a reacted sample and an unreacted sample are compared to calculate a survival ratio, and then the degree of metabolism in the liver was evaluated.
0.2 mL of a buffer solution (50 mmol/L of Tris-HCl in pH 7.4, 150 mmol/L of potassium chloride, and 10 mmol/L of magnesium chloride) containing a human liver microsome of 0.5 mg protein/mL was reacted in the presence of 1 mmol/L NADPH at 37 degrees Celsius for 0 or 30 minutes (oxidative reaction). After reacting, 50 μL of the reaction solution was added to 100 μL of a solution of methanol/acetonitrile (1/1(v/v)), mixed, and then centrifuged at 3000 rpm for 15 minutes. A test compound in the supernatant was quantitated with LC/MS/MS. An amount of the compound remained at a reaction time of 0 minute was defined as 100%, and, based on that, an amount of the test compound remained after the reaction was calculated.

Structure (SMILES)	CYP3A4 fluorescence MBI (difference of IC50 values with/without 30 min pre-reaction) [1]	AKT phosphorylation inhibition ratio [2]	Amount of the test compound remained after the reaction [3]
COc1cncc(-c2ccc3nc(NC(=O)NCC(=O)O)cn3n2)c1 [Compound I-224]	(−) (The case that it was 3 μM or lower was determined as (−))		
CCOC(=O)CNC(=O)Nc1cn2nc(-c3cccc(OC)c3)ccc2n1 [Compound I-112]		> 99.9%	
COc1cccc(-c2ccc3nc(NC(=O)NCc4nn[nH]n4)cn3n2)c1 [Compound I-292]	(−) (The case that it was 3 μM or lower was determined as (−))		
COc1cccc(-c2ccc3nc(NC(C)=O)cn3n2)c1 [Compound I-291]		> 99.9%	
CNC(=O)Nc1cn2nc(-c3cncc(OC)c3)ccc2n1 [Compound I-144]		> 99.9%	> 99.9%
CCOC(=O)CNC(=O)Nc1cn2nc(-c3cncc(OC)c3)ccc2n1 [Compound I-223]		> 99.9%	
COc1cccc(-c2ccc3nc(NC(=O)NCCC(=O)O)cn3n2)c1 [Compound I-260]	(−) (The case that it was 3 μM or lower was determined as (−))		
COc1cccc(-c2ccc3nc(NC(=O)NCc4cccnc4)cn3n2)c1 [Compound I-239]	(−) (The case that it was 3 μM or lower was determined as (−))		
COc1cccc(-c2ccc3nc(NC(=O)NCc4cc(=O)[nH]o4)cn3n2)c1 [Compound I-267]	(−) (The case that it was 3 μM or lower was determined as (−))		
CNC(=O)Nc1cn2nc(-c3cccc(OC(C)=O)c3)ccc2n1 [Compound I-146]		> 99.9%	
CNC(=O)Nc1cn2nc(-c3cccc(CCCO)c3)ccc2n1 [Compound I-136]		> 99.9%	
CNC(=O)Nc1cn2nc(COc3cccc(C(=O)O)c3)ccc2n1 [Compound I-221]			> 99.9%
CNC(=O)Nc1cn2nc(-c3ccc(OC)nc3)ccc2n1 [Compound I-148]		> 99.9%	
CNC(=O)Nc1cn2nc(-c3cccc(O)c3)ccc2n1 [Compound I-152]		> 99.9%	> 99.9%
CNC(=O)Nc1cn2nc(-c3cccc(OC)c3)ccc2n1 [Compound I-36]		> 99.9%	
